Consider 21 compounds from PubChem BioAssay AID248 (DTP/NCI, 2004).

The list shows only some results of the screen, not a fair sample: it gathers tests that were run many times, whatever their T/C, doses with no T/C, and many T/C values between a quarter and a half above the control. Other doses and runs of a compound stand elsewhere. T/C is the treated group as % of the vehicle group. Some doses have a count of surviving animals in place of a T/C: the source holds a T/C of zero for them, seemingly a mark for toxic or unscored doses. Some doses without a T/C left all or most animals alive at the check, yet need not have been tolerated: survival well below the control is almost never listed, so the zero probably covers shortened survival too. Survivors were counted at the toxicity check, usually on the fifth day, unless a day is given; later deaths do not show. Schedule codes are those of the source, read here as Q, the interval in days (D) or hours (H), X, the number of doses. Some entries hold several experiments; the results are listed from low to high. Additions like (4×) count equal records among those shown. For survival time, this PubChem deposit counts one and a half times the control or more as active, and values a quarter to a half above the control carry no call in these data; other NCI protocols may use other cut-offs. Some T/C values carry the count of animals alive at the toxicity check (mostly the fifth day); where none is given, no animal had died by that day.

The experiment deals with L1210 leukemia ip in BDF1 mice, survival T/C. The experiment is described as follows: NCI In Vivo Anticancer Drug Screen. Data for tumor model L1210 Leukemia (intraperitoneal) in B6D2F1 (BDF1) mice. The settings on record: T/C endpoint: mean survival time, higher T/C = longer survival.
The mark [1] stands for this setting: dose: 200.0 mg/kg/injection, schedule: Q04DX002 (ip), vehicle: Klucel (hydroxypropylcellulose) (HPC).
Setting [2] is: dose: 400.0 mg/kg/injection, schedule: Q04DX002 (ip), vehicle: Klucel (hydroxypropylcellulose) (HPC).
[3] abbreviates: dose: 100.0 mg/kg/injection, schedule: Q04DX002 (ip), vehicle: saline with Tween-80.
[4] abbreviates: dose: 200.0 mg/kg/injection, schedule: Q04DX002 (ip), vehicle: saline with Tween-80.
Setting [5] is: dose: 200.0 mg/kg/injection, schedule: Q01DX009 (ip), vehicle: Klucel (hydroxypropylcellulose) (HPC).
The mark [6] stands for this setting: dose: 400.0 mg/kg/injection, schedule: Q01DX009 (ip), vehicle: saline with Tween-80.

Turning to `CC(=O)OC1CCC(NC(=O)N(CCCl)N=O)CC1` (stereo not drawn), the T/C (dose: 7.5 mg/kg/injection, schedule: Q01DX001 (ip), vehicle: other) is 138 % of control. The survivor count is, setting by setting: (dose: 125.0 mg/kg/injection, schedule: Q01DX001 (ip), vehicle: other) 8 of 10; (dose: 250.0 mg/kg/injection, schedule: Q01DX001 (ip), vehicle: other) 4 of 10; (dose: 375.0 mg/kg/injection, schedule: Q01DX001 (ip), vehicle: other) 0 of 10; (dose: 500.0 mg/kg/injection, schedule: Q01DX001 (ip), vehicle: other) 0 of 10.
Turning to `CCCNC(=O)Oc1ccccc1C(=O)NCO`, the survivor count (dose: 400.0 mg/kg/injection, schedule: Q01DX009 (ip), vehicle: other) is given as 0 of 6.
Take `CC(=O)Nc1ncccc1C`: the survivor count was 0 of 6 (dose: 80.0 mg/kg/injection, schedule: Q01DX001 (ip), vehicle: saline); 0 of 6 (dose: 100.0 mg/kg/injection, schedule: Q01DX001 (ip), vehicle: saline); 0 of 6 (dose: 200.0 mg/kg/injection, schedule: Q01DX001 (ip), vehicle: saline); 0 of 6 (dose: 400.0 mg/kg/injection, schedule: Q01DX001 (ip), vehicle: saline).
For the compound `C=CCN(CC=C)P(N(CC=C)CC=C)N(CC=C)CC=C`, where the note is “dose: 300.0 mg/kg/injection, schedule: Q01DX009 (ip), vehicle: saline”, the survivor count is reported as 5 of 6.
With `CC(=O)OC1CCC2(C)C(=CCC3C2CCC2(C)C3CC3C(c4ccccc4Br)=NN(c4ccccc4)C32C#N)C1` (stereo not drawn), the T/C (dose: 12.5 mg/kg/injection, schedule: Q04DX002 (ip), vehicle: Klucel (hydroxypropylcellulose) (HPC)) was 125 % of control. The survivor count (dose: 25.0 mg/kg/injection, schedule: Q04DX002 (ip), vehicle: Klucel (hydroxypropylcellulose) (HPC)) is recorded as 3 of 3.
Consider `CCCCN(CCCC)CCNCC(Cc1ccccc1)c1ccccc1` (stereo not drawn), for which the survivor count was 1 of 3 under setting [1] and 0 of 3 under setting [2].
For `CC(CC(=O)O)NC(=O)OCc1ccccc1` (stereo not drawn), the T/C reads like this: under setting [3], 95, 101, 105 % of control; under setting [4], 92, 103, 104 % of control; (dose: 400.0 mg/kg/injection, schedule: Q04DX002 (ip), vehicle: saline with Tween-80) 95, 97, 98, 105 % of control. Further, the survivor count was 3 of 3 under setting [3] and 3 of 3 under setting [4].
Take `CC(=O)CC(=O)NCc1cccnc1`: under “dose: 100.0 mg/kg/injection, schedule: Q04DX003 (ip), vehicle: saline”, the survivor count was 6 of 6.
Turning to `CC1=N/C(=N\c2nc3cc(C)c(C)cc3[nH]2)NC(=O)CC1`, the survivor count runs as follows: (dose: 150.0 mg/kg/injection, schedule: Q01DX001 (ip), vehicle: saline) 1 of 6; (dose: 300.0 mg/kg/injection, schedule: Q01DX001 (ip), vehicle: saline) 0 of 6.
With `CCOC(=O)C1C=NC([N+](=O)[O-])=C1Br` (stereo not drawn), under setting [1], the survivor count is on record as 3 of 3.
`N#CC(C#N)=Cc1c[nH]c2ccccc12`: the survivor count (dose: 400.0 mg/kg/injection, schedule: Q04DX003 (ip), vehicle: saline with Tween-80) is listed as 6 of 6.
As for `COc1cc2c(c(OC)c1OC)-c1ccc(SCc3ccccc3)c(=O)cc1[C@@H](NC(C)=O)CC2`, the T/C (dose: 12.5 mg/kg/injection, schedule: Q01DX009 (ip), vehicle: Klucel (hydroxypropylcellulose) (HPC)) was 131 % of control. For the same compound, the survivor count is reported as 6 of 6 (dose: 50.0 mg/kg/injection, schedule: Q01DX009 (ip), vehicle: Klucel (hydroxypropylcellulose) (HPC)); 6 of 6 (dose: 100.0 mg/kg/injection, schedule: Q01DX009 (ip), vehicle: Klucel (hydroxypropylcellulose) (HPC)); 2 of 6 under setting [5]; 0 of 6 (dose: 400.0 mg/kg/injection, schedule: Q01DX009 (ip), vehicle: Klucel (hydroxypropylcellulose) (HPC)).
With `CNC(C)Cc1ccccc1` (stereo not drawn), the survivor count by setting is: (dose: 60.0 mg/kg/injection, schedule: Q01DX009 (ip), vehicle: saline) 1 of 6; (dose: 120.0 mg/kg/injection, schedule: Q01DX009 (ip), vehicle: saline) 0 of 6 (2×); (dose: 120.0 mg/kg/injection, schedule: Q04DX003 (ip), vehicle: saline) 1 of 6; (dose: 240.0 mg/kg/injection, schedule: Q01DX009 (ip), vehicle: saline) 0 of 6 (2×); (dose: 240.0 mg/kg/injection, schedule: Q04DX003 (ip), vehicle: saline) 0 of 6.
Regarding `Cc1ccc(S(=O)(=O)O/C=C2\CCOC2=O)cc1`, the survivor count under setting [2] is 2 of 3.
Regarding `CC(=O)Nc1ccc(OC(=O)Nc2ccccc2Cl)cc1`, the survivor count under setting [5] was 2 of 6.
With `CCCC(CCC)=NCCN=C(CCC)CCC`, the survivor count (dose: 400.0 mg/kg/injection, schedule: Q01DX009 (ip), vehicle: saline) was 3 of 6.
On to `COc1ccc(OC)c(NC(=S)NC(=O)c2ccccc2F)c1`, for which, under setting [6], the survivor count is 6 of 6.
As to `CC(=O)NC(CCC(=O)C=[N+]=N)C(=O)O` (stereo not drawn), the T/C was 138 % of control (dose: 0.4 mg/kg/injection, schedule: Q01DX009 (ip), vehicle: other, evaluated on day 35); 133 % of control (dose: 0.4 mg/kg/injection, schedule: Q01DX009 (ip), vehicle: other, evaluated on day 99); 125 % of control (dose: 0.6 mg/kg/injection, schedule: Q01DX009 (ip), vehicle: other, evaluated on day 35); 136 % of control (dose: 0.6 mg/kg/injection, schedule: Q01DX009 (ip), vehicle: other, evaluated on day 99); 125 and 140 % of control (dose: 1.0 mg/kg/injection, schedule: Q01DX001 (ip), vehicle: saline); 127 % of control [9 of 10 alive] (dose: 5.0 mg/kg/injection, schedule: Q03HX016 (ip), vehicle: other). The T/C was 128 % of control (dose: 8.0 mg/kg/injection, schedule: Q01DX001 (ip), vehicle: saline); 142 % of control (dose: 8.0 mg/kg/injection, schedule: Q04DX003 (ip), vehicle: other); 140 % of control [8 of 10 alive] (dose: 10.0 mg/kg/injection, schedule: Q03HX016 (ip), vehicle: other); 131 % of control (dose: 10.0 mg/kg/injection, schedule: Q08DX002 (ip), vehicle: other); 146 % of control (dose: 20.0 mg/kg/injection, schedule: Q03HX016 (ip), vehicle: other). For the same compound, the survivor count was 6 of 6 (dose: 0.6 mg/kg/injection, schedule: Q01DX009 (ip), vehicle: other); 5 of 6 and 6 of 6 (dose: 0.8 mg/kg/injection, schedule: Q01DX009 (ip), vehicle: other); 5 of 6 and 6 of 6 (dose: 1.0 mg/kg/injection, schedule: Q01DX009 (ip), vehicle: other); 6 of 6 (dose: 3.5 mg/kg/injection, schedule: Q01DX009 (ip), vehicle: saline); 6 of 6 (dose: 5.3 mg/kg/injection, schedule: Q01DX009 (ip), vehicle: saline); 4 of 6 (dose: 8.0 mg/kg/injection, schedule: Q01DX009 (ip), vehicle: saline). Besides, the survivor count (dose: 12.0 mg/kg/injection, schedule: Q01DX009 (ip), vehicle: saline) is recorded as 5 of 6.
Turning to `CC1CN=C(c2ccc3ccccc3c2O)S1` (stereo not drawn), the survivor count (dose: 400.0 mg/kg/injection, schedule: Q01DX005 (ip), vehicle: saline with Tween-80) is on record as 3 of 3.
For `Cc1ccc2[nH]c(=O)oc(=O)c2c1`, the survivor count under setting [6] is reported as 6 of 6.
As for `CCC(C)(C)NC1=C(Cl)C(=O)c2ccccc2C1=O`, the survivor count reads like this: (dose: 25.0 mg/kg/injection, schedule: Q01DX001 (ip), vehicle: saline with Tween-80) 0 of 6; (dose: 100.0 mg/kg/injection, schedule: Q01DX001 (ip), vehicle: saline with Tween-80) 0 of 6; (dose: 200.0 mg/kg/injection, schedule: Q01DX001 (ip), vehicle: saline with Tween-80) 0 of 6; (dose: 400.0 mg/kg/injection, schedule: Q01DX001 (ip), vehicle: saline with Tween-80) 0 of 6.
